# The exact form of at least one protein or probe is not confirmed. For part of these data: Negatives hold for the conditions tested. For part of these data: Weaker means in comparison with the reference protein, sequence or condition of that experiment. For part of these data: Protein sequences can lack the tags named with them. For part of these data: At least one verdict was read from the data and is not stated in words by the source. For part of these data: Whether high values mean tight binding is not given here for every scale.
# By UniProt entry, the sequences of proteins in these tests, tags left out. Where a name states a change or a piece, a line headed by the entry shows the natural chain unless it says otherwise.
# UniProt Q9BXW9: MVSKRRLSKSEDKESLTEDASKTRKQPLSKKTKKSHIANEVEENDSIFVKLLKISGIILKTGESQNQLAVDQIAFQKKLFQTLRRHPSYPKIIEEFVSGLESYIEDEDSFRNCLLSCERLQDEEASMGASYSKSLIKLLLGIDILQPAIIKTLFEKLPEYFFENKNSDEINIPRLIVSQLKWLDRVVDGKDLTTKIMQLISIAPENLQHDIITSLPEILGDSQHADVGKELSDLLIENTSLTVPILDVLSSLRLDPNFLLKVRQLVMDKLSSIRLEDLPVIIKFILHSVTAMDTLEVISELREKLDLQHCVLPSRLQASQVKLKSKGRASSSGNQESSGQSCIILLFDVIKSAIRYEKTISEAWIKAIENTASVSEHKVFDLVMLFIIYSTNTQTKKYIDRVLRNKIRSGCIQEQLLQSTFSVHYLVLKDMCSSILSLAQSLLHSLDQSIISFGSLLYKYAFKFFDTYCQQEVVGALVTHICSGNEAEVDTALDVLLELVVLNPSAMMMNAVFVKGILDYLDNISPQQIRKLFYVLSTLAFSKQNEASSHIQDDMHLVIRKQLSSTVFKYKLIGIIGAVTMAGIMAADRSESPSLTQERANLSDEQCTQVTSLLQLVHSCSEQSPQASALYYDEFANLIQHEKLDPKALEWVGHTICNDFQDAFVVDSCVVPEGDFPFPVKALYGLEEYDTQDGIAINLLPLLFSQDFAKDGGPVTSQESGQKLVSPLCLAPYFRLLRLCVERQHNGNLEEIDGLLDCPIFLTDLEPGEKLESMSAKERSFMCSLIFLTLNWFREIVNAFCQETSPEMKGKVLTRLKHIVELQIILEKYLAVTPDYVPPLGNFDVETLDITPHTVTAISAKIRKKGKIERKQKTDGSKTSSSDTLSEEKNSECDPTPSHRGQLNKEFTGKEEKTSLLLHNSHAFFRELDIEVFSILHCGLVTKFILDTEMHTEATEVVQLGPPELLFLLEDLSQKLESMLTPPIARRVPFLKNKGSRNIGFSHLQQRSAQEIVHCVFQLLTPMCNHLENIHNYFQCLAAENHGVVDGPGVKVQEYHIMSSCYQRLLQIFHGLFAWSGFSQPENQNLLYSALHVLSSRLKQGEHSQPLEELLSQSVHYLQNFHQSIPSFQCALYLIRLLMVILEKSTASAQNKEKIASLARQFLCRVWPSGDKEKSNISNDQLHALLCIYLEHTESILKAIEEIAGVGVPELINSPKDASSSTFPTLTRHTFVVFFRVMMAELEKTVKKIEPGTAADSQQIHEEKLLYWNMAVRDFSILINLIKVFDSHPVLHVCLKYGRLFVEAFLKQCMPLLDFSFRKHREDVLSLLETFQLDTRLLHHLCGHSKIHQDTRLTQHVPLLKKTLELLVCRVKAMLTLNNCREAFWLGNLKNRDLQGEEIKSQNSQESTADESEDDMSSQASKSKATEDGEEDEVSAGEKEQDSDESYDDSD
# Legend:
# [1] = molecular target: FANCD2-Ub (D2Ub) (Homo sapiens) (UniProt Q9BXW9); experiment: EMSA; details: 150 mM NaCl; EMSA: 16 mM Tris-HCl pH 8, 150 mM NaCl, 4.4% glycerol, 0.07 mg/ml BSA, 7 mM DTT, 4 mM EDTA, 2 nM DNA, on ice 20 min, 4% PAGE in 0.5x TBE (4 C); recombinant protein; protein details: FLAG (EMSA), His6 removed by 3C; label: 5' IRDye700 on both strands
# [2] = system: FANCI (I) + FANCD2 (D2); experiment: EMSA; details: EMSA: 16 mM Tris-HCl pH 8, 150 mM NaCl, 4.4% glycerol, 0.07 mg/ml BSA, 7 mM DTT, 4 mM EDTA, 2 nM DNA, on ice 20 min, 4% PAGE in 0.5x TBE (4 C), recombinant protein, label: 5' IRDye700 on both strands
# [3] = system: FANCI (I) + FANCD2-Ub (D2Ub); experiment: EMSA; details: EMSA: 16 mM Tris-HCl pH 8, 150 mM NaCl, 4.4% glycerol, 0.07 mg/ml BSA, 7 mM DTT, 4 mM EDTA, 2 nM DNA, on ice 20 min, 4% PAGE in 0.5x TBE (4 C), recombinant protein, label: 5' IRDye700 on both strands
# [4] = system: FANCI R1285Q + FANCD2 (D2); experiment: EMSA; details: 150 mM NaCl, less than P5+P4; EMSA: 16 mM Tris-HCl pH 8, 150 mM NaCl, 4.4% glycerol, 0.07 mg/ml BSA, 7 mM DTT, 4 mM EDTA, 2 nM DNA, on ice 20 min, 4% PAGE in 0.5x TBE (4 C); recombinant protein; label: 5' IRDye700 on both strands
# [5] = system: FANCI R1285Q + FANCD2-Ub (D2Ub); experiment: EMSA; details: 150 mM NaCl, only small increase over R1285Q I+D2; EMSA: 16 mM Tris-HCl pH 8, 150 mM NaCl, 4.4% glycerol, 0.07 mg/ml BSA, 7 mM DTT, 4 mM EDTA, 2 nM DNA, on ice 20 min, 4% PAGE in 0.5x TBE (4 C); recombinant protein; protein details: His6 (N-term),FLAG (EMSA), His6 removed by 3C; label: 5' IRDye700 on both strands
# [6] = system: FANCI-Ub (IUb) + FANCD2-Ub (D2Ub); experiment: EMSA; details: 150 mM NaCl, comparable to I+D2Ub; EMSA: 16 mM Tris-HCl pH 8, 150 mM NaCl, 4.4% glycerol, 0.07 mg/ml BSA, 7 mM DTT, 4 mM EDTA, 2 nM DNA, on ice 20 min, 4% PAGE in 0.5x TBE (4 C); recombinant protein; label: 5' IRDye700 on both strands
# [7] = molecular target: FANCD2-Ub (D2Ub) (Homo sapiens) (UniProt Q9BXW9); experiment: PIFE; details: 150 mM NaCl, up to uM range; PIFE: 150 mM NaCl, 125 nM DNA, 22 C.; recombinant protein; protein details: FLAG (EMSA), His6 removed by 3C; label: 5' IRDye700 on both strands
# [8] = system: FANCI (I) + FANCD2 (D2); experiment: PIFE; details: 100 mM NaCl, Kd only in figure; PIFE: 150 mM NaCl, 125 nM DNA, 22 C.; recombinant protein; label: 5' IRDye700 on both strands
# [9] = system: FANCI (I) + FANCD2-Ub (D2Ub); experiment: PIFE; details: PIFE: 150 mM NaCl, 125 nM DNA, 22 C., recombinant protein, label: 5' IRDye700 on both strands; for binding result: Kd only in figure
# [10] = system: FANCI R1285Q + FANCD2-Ub (D2Ub); experiment: PIFE; details: not substantially enhanced by D2 ubiquitination, unlike WT, Kd only in bar graph; PIFE: 150 mM NaCl, 125 nM DNA, 22 C.; recombinant protein; protein details: His6 (N-term),FLAG (EMSA), His6 removed by 3C; label: 5' IRDye700 on both strands
# [11] = molecular target: T1, FANCI-Ub (IUb) (Homo sapiens) (UniProt Q9NVI1); experiment: PIFE; details: IUb alone does not bind efficiently (up to 1.5 uM); PIFE: 150 mM NaCl, 125 nM DNA, 22 C.; recombinant protein; protein details: His6-TEV-V5 (N-term, EMSA); label: 5' IRDye700 on both strands
# T1 sequence (looked up, limits assumed): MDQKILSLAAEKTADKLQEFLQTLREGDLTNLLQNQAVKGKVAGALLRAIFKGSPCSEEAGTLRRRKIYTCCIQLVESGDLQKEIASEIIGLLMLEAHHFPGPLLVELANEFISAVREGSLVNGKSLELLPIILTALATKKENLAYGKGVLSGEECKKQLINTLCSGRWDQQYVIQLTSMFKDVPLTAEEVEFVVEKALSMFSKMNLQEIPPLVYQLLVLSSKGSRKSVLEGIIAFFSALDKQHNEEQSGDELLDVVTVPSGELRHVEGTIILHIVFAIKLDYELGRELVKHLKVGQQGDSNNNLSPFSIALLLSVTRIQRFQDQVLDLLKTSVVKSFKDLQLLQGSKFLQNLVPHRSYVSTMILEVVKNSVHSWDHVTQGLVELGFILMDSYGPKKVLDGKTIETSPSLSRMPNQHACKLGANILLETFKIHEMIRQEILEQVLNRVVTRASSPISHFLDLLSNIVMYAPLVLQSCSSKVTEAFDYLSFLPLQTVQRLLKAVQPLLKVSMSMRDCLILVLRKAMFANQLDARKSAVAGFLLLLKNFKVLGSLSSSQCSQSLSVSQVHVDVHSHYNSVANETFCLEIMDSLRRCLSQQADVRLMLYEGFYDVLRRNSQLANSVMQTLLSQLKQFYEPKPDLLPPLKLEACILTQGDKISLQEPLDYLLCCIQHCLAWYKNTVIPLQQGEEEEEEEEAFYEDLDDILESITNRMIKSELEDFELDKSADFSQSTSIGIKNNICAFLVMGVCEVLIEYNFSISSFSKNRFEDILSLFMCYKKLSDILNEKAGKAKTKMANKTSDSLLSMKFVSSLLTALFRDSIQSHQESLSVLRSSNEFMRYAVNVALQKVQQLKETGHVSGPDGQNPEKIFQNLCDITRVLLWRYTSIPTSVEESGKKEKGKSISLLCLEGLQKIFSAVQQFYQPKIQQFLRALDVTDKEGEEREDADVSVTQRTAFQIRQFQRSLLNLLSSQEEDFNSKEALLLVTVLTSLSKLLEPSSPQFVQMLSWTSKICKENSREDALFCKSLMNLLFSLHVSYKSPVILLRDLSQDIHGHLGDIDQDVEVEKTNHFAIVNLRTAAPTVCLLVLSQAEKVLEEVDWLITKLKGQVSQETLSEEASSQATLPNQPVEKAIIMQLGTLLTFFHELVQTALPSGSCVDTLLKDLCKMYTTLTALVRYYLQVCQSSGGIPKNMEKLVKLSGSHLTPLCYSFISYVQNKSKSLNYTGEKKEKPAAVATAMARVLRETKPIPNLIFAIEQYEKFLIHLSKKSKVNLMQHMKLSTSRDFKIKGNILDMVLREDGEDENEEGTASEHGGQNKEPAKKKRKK
# [12] = system: FANCI-Ub (IUb) + FANCD2 (D2); experiment: PIFE; details: tighter than I+D2, weaker than IUb+D2Ub, Kd only in bar graph; PIFE: 150 mM NaCl, 125 nM DNA, 22 C.; recombinant protein; label: 5' IRDye700 on both strands
# [13] = system: FANCI-Ub (IUb) + FANCD2-Ub (D2Ub); experiment: PIFE; details: PIFE: 150 mM NaCl, 125 nM DNA, 22 C., recombinant protein, label: 5' IRDye700 on both strands
# [14] = system: FANCI-Ub(F4A) + FANCD2-Ub (D2Ub); experiment: PIFE; details: Ub F4A on FANCI; PIFE: 150 mM NaCl, 125 nM DNA, 22 C.; recombinant protein; protein details: FLAG (EMSA), His6 removed by 3C; label: 5' IRDye700 on both …
# [15] = system: FANCI-Ub(I44A) + FANCD2-Ub (D2Ub); experiment: PIFE; details: Ub I44A on FANCI; PIFE: 150 mM NaCl, 125 nM DNA, 22 C.; recombinant protein; protein details: FLAG (EMSA), His6 removed by 3C; label: 5' IRDye700 on both strands
# [16] = 200 mM NaCl, modest salt effect, Kd only in figure
sequence,measurement,setting,value
CGATCGGTAACGTATGCTGAATCTGGTGCTGG (double strand) [ds32F],binding result,[1],no binding
same,binding result,"[2]; 100 mM NaCl, Kd only in figure",binds
same,binding result,"[2]; 150 mM NaCl, weaker than I+D2Ub",binds more weakly
same,binding result,[2]; [16],binds
same,binding result,"[2]; His6-FANCI, 150 mM NaCl, weaker than I+D2Ub",binds more weakly
same,binding result,"[3]; 100 mM NaCl, Kd only in figure",binds
same,binding result,[3]; 150 mM NaCl,binds
same,binding result,[3]; [16],binds
same,binding result,"[3]; His6-FANCI, 150 mM NaCl",binds
same,binding result,[4],binds
same,binding result,[5],binds more weakly
same,binding result,[6],binds
same,binding result,[7],no binding
same,binding result,[8],binds
same,binding result,[9]; 100 mM NaCl,binds
same,binding signal (fold affinity enhancement vs I+D2),"[9]; 150 mM NaCl, Kd only in bar graph",10
same,binding result,"[9]; 200 mM NaCl, highly salt sensitive",binds
same,binding result,[10],binds more weakly
same,binding result,[11],binds more weakly
same,binding result,[12],binds more weakly
same,binding result,"[13]; 150 mM NaCl, not significantly different from I+D2Ub",binds
same,binding result,[13]; WT ubiquitin on FANCI,binds
same,binding result,[14],binds
same,binding result,[15],binds

# Reference: paper PMC7332966
